For some assays here: Expression values are those of the mRNA of the gene that encodes the peptide; a gene is named only where it was looked up.
Columns and labels:
HLA-A*02 = assay: Identification and relative LC-MS quantitation of HLA-A*02-presented tumor-associated peptides on tissue samples (presentation profiles, Tables 13A, 13B, 15, FIG. 1); design: species or system human; key to Presentation score NHL / Presentation score CLL / Presentation score BRCA / Presentation score AML / Presentation score GB / Presentation score NSCLC / Presentation score GBC_CCC / Presentation score UEC / Presentation score MEL / Presentation score OSCAR / Presentation score GC / Presentation score UBC / Presentation score OC / Presentation score RCC / Presentation score CRC / Presentation score PCA / Presentation score HCC / Presentation score PC / Presentation score SCLC: specifically presented on tumors (++++); very highly over-presented on tumors compared to a panel of normal tissues (+++); highly over-presented on tumors compared to a panel of normal tissues (++); over-presented on tumors compared to a panel of normal tissues (+); details: for Presentation score NSCLC: non-small cell lung cancer (N = 90) vs panel of normal tissues (N = 262); for Peptide Presentation on cancer entities: Table 13A, HLA-A*02-binding tumor-associated peptides, cancer entities on which the peptide was found presented
source genes (mRNA) [1] = assay: Expression profiling of source genes by in-house RNASeq of tumor and normal tissues (Table 18, FIG. 2); design: species or system human; key: very highly over-expressed in tumors compared to a panel of normal tissues (+++); highly over-expressed in tumors compared to a panel of normal tissues (++); over-expressed in tumors compared to a panel of normal tissues (+); details: source gene of peptide; for Expression score CRC: colorectal cancer (N = 20) vs panel of normal tissues; for Expression score GBC_CCC: gallbladder adenocarcinoma and cholangiocarcinoma (N = 3) vs panel of normal tissues; for Expression score GB: glioblastoma (N = 24) vs panel of normal tissues; for Expression score NSCLC: non-small cell lung cancer (N = 11) vs panel of normal tissues; for Expression score OC: ovarian cancer (N = 12) vs panel of normal tissues; for Expression score UBC: urinary bladder cancer (N = 10) vs panel of normal tissues
source genes (mRNA) [2] = assay: Gene and exon expression of source genes, TCGA tumor samples compared with normal tissue samples (Lonsdale, 2013) (Table 17); design: species or system human; details: for Target coverage: over-expression category of source gene, BLCA: Bladder urothelial carcinoma (N = 408); for Target coverage: over-expression category of source gene, READ: Colon and rectal adenocarcinoma (N = 167); for Target coverage: over-expression category of source gene, COAD: Colon and rectal adenocarcinoma (N = 462); for Target coverage: over-expression category of source gene, ESCA: Esophageal cancer (N = 185); for Target coverage: over-expression category of source gene, LUAD: Lung adenocarcinoma (N = 517); for Target coverage: over-expression category of source gene, LUSC: Lung squamous cell carcinoma (N = 503); for Target coverage: over-expression category of source gene, SKCM: Skin cutaneous melanoma (N = 473); for Target coverage: over-expression category of source gene, STAD: Stomach adenocarcinoma (N = 415); for Target coverage: over-expression category of source gene, UCEC: Uterine corpus endometrial carcinoma (N = 546)
[3] = cutoff more than 2-fold above highest 75% percentile of normal tissue samples

Substance	Presentation score NSCLC (HLA-A*02; HLA-A*02 peptides)	Peptide Presentation on cancer entities (HLA-A*02)	Expression score CRC (source genes (mRNA) [1])	Expression score GBC_CCC (source genes (mRNA) [1])	Expression score GB (source genes (mRNA) [1])	Expression score NSCLC (source genes (mRNA) [1])	Expression score OC (source genes (mRNA) [1])	Expression score UBC (source genes (mRNA) [1])	Target coverage: over-expression category of source gene, BLCA (source genes (mRNA) [2]; [3])	Target coverage: over-expression category of source gene, READ (source genes (mRNA) [2]; [3])	Target coverage: over-expression category of source gene, COAD (source genes (mRNA) [2]; [3])	Target coverage: over-expression category of source gene, ESCA (source genes (mRNA) [2]; [3])	Target coverage: over-expression category of source gene, LUAD (source genes (mRNA) [2]; [3])	Target coverage: over-expression category of source gene, LUSC (source genes (mRNA) [2]; [3])	Target coverage: over-expression category of source gene, SKCM (source genes (mRNA) [2]; [3])	Target coverage: over-expression category of source gene, STAD (source genes (mRNA) [2]; [3])	Target coverage: over-expression category of source gene, UCEC (source genes (mRNA) [2]; [3])	also measured
62: peptide found in MET (gene looked up) (ALNPELVQA; listed as Homo sapiens) [compound 62]	++++	GB, NSCLC, RCC	+	++	++	+++	+	+	C (>=5% of tumors above the cutoff, but <20%)	A (>=50% of tumors above the cutoff)	A (>=50% of tumors above the cutoff)	A (>=50% of tumors above the cutoff)	A (>=50% of tumors above the cutoff)	B (>= 20% of tumors above the cutoff, but <50%)	B (>= 20% of tumors above the cutoff, but <50%)	B (>= 20% of tumors above the cutoff, but <50%)	C (>=5% of tumors above the cutoff, but <20%)	Presentation score GB (HLA-A*02; HLA-A*02 peptides, glioblastoma (N = 41) vs panel of normal tissues (N = 262)): ++++; Presentation score RCC (HLA-A*02; HLA-A*02 peptides, renal cell carcinoma (N = 20) vs panel of normal tissues (N = 262)): ++++; Expression score GC (source genes (mRNA) [1]; gastric cancer (N = 11) vs panel of normal tissues): ++; Expression score HCC (source genes (mRNA) [1]; hepatocellular carcinoma (N = 15) vs panel of normal tissues): +; Expression score PC (source genes (mRNA) [1]; pancreatic cancer (N = 26) vs panel of normal tissues): +; Expression score RCC (source genes (mRNA) [1]; renal cell carcinoma (N = 10) vs panel of normal tissues): +++; Target coverage: over-expression category of source gene, CHOL (source genes (mRNA) [2]; Cholangiocarcinoma (N = 36), cutoff more than 2-fold above highest 75% percentile of normal tissue samples): B (>= 20% of tumors above the cutoff, but <50%); Target coverage: over-expression category of source gene, KIRC (source genes (mRNA) [2]; Clear cell kidney carcinoma (N = 534), cutoff more than 2-fold above highest 75% percentile of normal tissue samples): A (>=50% of tumors above the cutoff); Target coverage: over-expression category of source gene, KICH (source genes (mRNA) [2]; Kidney chromophobe (N = 66), cutoff more than 2-fold above highest 75% percentile of normal tissue samples): A (>=50% of tumors above the cutoff); Target coverage: over-expression category of source gene, LIHC (source genes (mRNA) [2]; Liver hepatocellular carcinoma (N = 374), cutoff more than 2-fold above highest 75% percentile of normal tissue samples): B (>= 20% of tumors above the cutoff, but <50%); Target coverage: over-expression category of source gene, PAAD (source genes (mRNA) [2]; Pancreatic ductal adenocarcinoma (N = 179), cutoff more than 2-fold above highest 75% percentile of normal tissue samples): B (>= 20% of tumors above the cutoff, but <50%); Target coverage: over-expression category of source gene, KIRP (source genes (mRNA) [2]; Papillary kidney carcinoma (N = 291), cutoff more than 2-fold above highest 75% percentile of normal tissue samples): A (>=50% of tumors above the cutoff)
75: peptide found in MSH2 (gene looked up) (AVIKFLELL; listed as Homo sapiens) [compound 75]	++++	GC, NSCLC, OSCAR	+	+	+	+	++	+	C (>=5% of tumors above the cutoff, but <20%)	C (>=5% of tumors above the cutoff, but <20%)	B (>= 20% of tumors above the cutoff, but <50%)	C (>=5% of tumors above the cutoff, but <20%)	C (>=5% of tumors above the cutoff, but <20%)	B (>= 20% of tumors above the cutoff, but <50%)	B (>= 20% of tumors above the cutoff, but <50%)	C (>=5% of tumors above the cutoff, but <20%)	C (>=5% of tumors above the cutoff, but <20%)	Presentation score OSCAR (HLA-A*02; HLA-A*02 peptides, esophageal cancer, including cancer of the gastric-esophageal junction (N = 17) vs panel of normal tissues (N = 262)): ++++; Presentation score GC (HLA-A*02; HLA-A*02 peptides, gastric cancer (N = 29) vs panel of normal tissues (N = 262)): ++++; Expression score BRCA (source genes (mRNA) [1]; BRCA tumors vs panel of normal tissues): +; Expression score OSCAR (source genes (mRNA) [1]; esophageal cancer incl. gastric-esophageal junction (N = 11) vs panel of normal tissues): +; Expression score NHL (source genes (mRNA) [1]; non-Hodgkin lymphoma (N = 10) vs panel of normal tissues): +; Expression score SCLC (source genes (mRNA) [1]; small cell lung cancer (N = 10) vs panel of normal tissues): +++; Expression score UEC (source genes (mRNA) [1]; uterine cancer (N = 10) vs panel of normal tissues): +; Target coverage: over-expression category of source gene, LAML (source genes (mRNA) [2]; Acute Myeloid Leukemia (N = 173), cutoff more than 2-fold above highest 75% percentile of normal tissue samples): A (>=50% of tumors above the cutoff); Target coverage: over-expression category of source gene, BRCA (source genes (mRNA) [2]; Breast cancer (N = 1104), cutoff more than 2-fold above highest 75% percentile of high and medium risk normal tissue samples): B (>= 20% of tumors above the cutoff, but <50%); Target coverage: over-expression category of source gene, GBM (source genes (mRNA) [2]; Glioblastoma multiforme (N = 169), cutoff more than 2-fold above highest 75% percentile of normal tissue samples): C (>=5% of tumors above the cutoff, but <20%); Target coverage: over-expression category of source gene, LGG (source genes (mRNA) [2]; Lower grade glioma (N = 534), cutoff more than 2-fold above highest 75% percentile of normal tissue samples): C (>=5% of tumors above the cutoff, but <20%); Target coverage: over-expression category of source gene, DLBC (source genes (mRNA) [2]; Lymphoid neoplasm diffuse large B-cell lymphoma (N = 48), cutoff more than 2-fold above highest 75% percentile of normal tissue samples): B (>= 20% of tumors above the cutoff, but <50%); Target coverage: over-expression category of source gene, OV (source genes (mRNA) [2]; Ovarian serous cystadenocarcinoma (N = 309), cutoff more than 2-fold above highest 75% percentile of normal tissue samples): B (>= 20% of tumors above the cutoff, but <50%)

Source: patent publication US20170189504A1, “NOVEL PEPTIDES AND COMBINATION OF PEPTIDES FOR USE IN IMMUNOTHERAPY AGAINST VARIOUS CANCERS” (immatics biotechnologies GmbH, priority 2015, published 2017)
